Experimental findings from PubChem BioAssay AID1347426 (Functional Genomics Laboratory (NCATS/FGL), 2020) are described below.

In all, about 31,000 sequences went through this assay and about 1,400 (4.5%) were called active.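 Rule for the calls: active = median seed-adjusted z-score above 1 or below -1; inactive = the rest.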 The list shows a part of the results.

This assay can be described thus: Novel Modifiers of Survival Motor Neuron (SMN) Protein: Gene Identification via Genome-wide siRNA Screen.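 Note: luminescence tracks full-length SMN protein made from the SMN2 reporter.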 As to conditions: HEK293T SMN2-luciferase reporter, siRNA knockdown, 72 h; actives lie on both sides. The method in brief: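 Steps: spot 1 pmol siRNA, add Lipofectamine RNAiMax in serum-free DMEM, seed HEK293T SMN2–luciferase reporter cells; incubate 72 h at 37 °C; add ONE-Glo; normalize luminescence to control siRNA, log10, MAD. Candidates: |MAD| > 1.0.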
For GUUCCACUUUAAACACUCATT against FEZF1, the median seed-adjusted z-score is inactive: 0.155. Next, CAGUGAAAAGUGACGCGGATT against DZIP1: inactive: -0.138; CCACGCUGGAGAUCCUUAATT against FES: inactive: 0.402.

UGAUCUUUGUCGGCAUUAATT against CYCS: the median seed-adjusted z-score was inactive: -0.679. Next, GAAUAUUGCAAUAGACUUATT against ZNF678: inactive: 0.172; GACCUGGGCAGAUUCCAAATT against MMP9: active: -1.15. GAACAACACGACCAACAGATT against PRKD2: the median seed-adjusted z-score was inactive: 0.00493. Turning to GGAGCAGUAUUGACAACAATT against NUFIP1, the median seed-adjusted z-score is inactive: -0.673.

Take AGAUCACAAGAGAACUUGUTT against AP1S2: the median seed-adjusted z-score is inactive: -0.323. Next, GGACUGCGAAGAACUCCUATT against VAV3: inactive: 0; CAAAGAACCUAUCCGCUUATT against GGA2: inactive: -0.142. As for GUGCUACAAUUGUACAGUATT against CREM, the median seed-adjusted z-score was active: -2.37.

Turning to AGACUGCAAUGAACGUGAATT against RAB5C, the median seed-adjusted z-score is inactive: -0.529.

Take GCACGGCUCUAUCUCAUCATT against TRIM56: the median seed-adjusted z-score was inactive: -0.452. Turning to GGUGAUCAUUUAUAACAGATT against HS2ST1, the median seed-adjusted z-score was inactive: 0.421. Regarding CCGGAAAUUUGGGACGCAATT against DHX58, the median seed-adjusted z-score is inactive: -0.302.

Turning to GCCUUACUCGUGCAGCGAATT against ZNF672, the median seed-adjusted z-score was inactive: 0.35. Next, CGAAGUCAACAAUACCAUUTT against PEPD: inactive: -0.00401; GAGAAUGACUGGUGGGUUUTT against ARPC1B: inactive: 0; GCAAUUUUGACAAUGCUAATT against SYTL3: inactive: 0.236. In the case of GGACAAUCCUUGGUUCUGUTT against LRIT3, the median seed-adjusted z-score was inactive: 0.0324. Take GUCAAAAUGUUCUACAUUATT against LECT2: the median seed-adjusted z-score was inactive: 0.0371. In the case of CCUCCUCGAUGCCUACAAATT against DIO2, the median seed-adjusted z-score is inactive: -0.549. As to GGAAUUUCCUAACUCUCCATT against HHIP, the median seed-adjusted z-score is inactive: 0. Regarding GUCUCCAUGUGGACAAGGATT against CREBZF, the median seed-adjusted z-score is inactive: 0.424.

For the sequence CGCUCACUGUUCUUCGGCUTT against RAD9A, the median seed-adjusted z-score is inactive: -0.0564. The result for CCCUCAUCAGUAAUGGUCATT against CYP1A1 reads inactive: 0.124; that for GCUUGACUAUGGAAAGAAATT against CTDSPL, inactive: 0.43; that for GGAGUACUGUGACUACAGATT against SCNN1A, inactive: -0.137. Next, CAGCUAAGCUUGUAGCGAUTT against VPS54: inactive: -0.128; GAUCUUCUGUUGUCAUGGATT against PPP1CB: inactive: -0.81. CCUUUACCCAGAUUAUGCATT against GRIK1: the median seed-adjusted z-score was inactive: -0.31. Next, CACCCUCCGACUUUCUUUUTT against USP41: inactive: 0.808. Turning to GAAGCAUUAGUUUUACGAATT against PLD5, the median seed-adjusted z-score is inactive: -0.0377. CAUCCUCGAUAGUACUCAATT against LNX1: the median seed-adjusted z-score was inactive: -0.463.

Regarding GGCCUGUUGCUGUUCAUGATT against SLC37A4, the median seed-adjusted z-score was inactive: -0.00202.

GGACUGAUCUGUUCAGCAATT against ELF5: the median seed-adjusted z-score is inactive: -0.45. Turning to GACUAACCAUGACCUAUGATT against SLCO1B1, the median seed-adjusted z-score was inactive: 0.127. The result for GACUUUAUCCUGAAGCUUUTT against GNA14 reads inactive: 0.363; that for GGUUUGUGAAAGCAUAUAATT against FMNL2, inactive: 0.293; that for GGCUAUGACAGUUCUGUAATT against KCNQ1, inactive: -0.0525. As to GUAUCGAAGUGGAGACAAUTT against NELL1, the median seed-adjusted z-score was inactive: -0.466. Regarding GCACUGCCUUGUACAACUATT against EARS2, the median seed-adjusted z-score was inactive: 0.0463. For CCGUAUGUUUUGCUGCAAATT against ABCC4, the median seed-adjusted z-score was active: -1.66.

As to CCGAUAUCCUCGUGACUGATT against CACNA1A, the median seed-adjusted z-score was inactive: -0.467.

As for AAAUGGUAGCGGAAUGUAATT against PMP2, the median seed-adjusted z-score is inactive: 0.00618.

On to UGAUCUUGGUUGAACUGUATT against USP43, for which the median seed-adjusted z-score was inactive: 0. On to GAAAGAACGAGGAGACUUUTT against ATP1B1, for which the median seed-adjusted z-score was inactive: 0.971.

In the case of GGACAACAUUAACAUCCGATT against ATAD2B, the median seed-adjusted z-score was inactive: 0.0192. Next, AGGGCUUGUUUGACAACUUTT against CHTF18: inactive: 0.371; CCUAGAUCACAUAACCAUUTT against SLCO1C1: inactive: 0.071. Next, UCCUCUACCUGGAUCAUAATT against INHBE: inactive: 0.172; CGGCUUCAAAGUCUACGUATT against EXT1: inactive: 0.489. Take CGAACUUAAUGGUAAAGAATT against CD2AP: the median seed-adjusted z-score is inactive: 0.113.

For the sequence GGCUGGAUGUCAUUGAGAATT against SRGAP3, the median seed-adjusted z-score was inactive: -0.0961.

For GGAUGUCUUUUGUCCCUGUTT against VN2R1P, the median seed-adjusted z-score is inactive: -0.25. In the case of GCCUGGAACUAGAGCGCAATT against PRPH, the median seed-adjusted z-score was inactive: 0. As to CUACCAAACCAACUACCUUTT against PRAF2, the median seed-adjusted z-score was inactive: -0.326. For GGAAGAAACUUGUGCAGAUTT against PTPN23, the median seed-adjusted z-score was inactive: -0.0473. Consider GCCUCGCAAAUGUAUCUGATT against CD163L1, for which the median seed-adjusted z-score is inactive: 0.353. Take GCUGAGCCGUUUGACAACATT against NDUFV3: the median seed-adjusted z-score is inactive: -0.086. The result for GCAGAACGAAUAUAAGUUATT against MLH3 reads inactive: 0.228; that for GGAAGGAACUGACCGACUUTT against FOSL1, inactive: -0.431; that for CCCUAUCAUUGGAGAUGUUTT against NR0B2, inactive: -0.374. Next, GGUUGUUGCUGAUAGAGAATT against DPH5: inactive: 0.

Turning to GGUUAUCAAGUAUUACCCATT against TTC15, the median seed-adjusted z-score was inactive: -0.235.

As to GAUUGGUGGUUGGAACAUUTT against ECE2, the median seed-adjusted z-score is inactive: 0.794.

GGCCUAGUCUACUUCCUCUTT against MFSD10: the median seed-adjusted z-score is inactive: 0.0116. Regarding AGCAAGUUCUUGAAAUUCATT against MRGPRD, the median seed-adjusted z-score was inactive: -0.484. Take GAAAGGAUCAGUGUCGAUATT against OCRL: the median seed-adjusted z-score was inactive: -0.545. In the case of CACCUACUUUGAUAGAGAUTT against HMGCS1, the median seed-adjusted z-score was inactive: 0.0596. For the sequence GGAUGGGCUCAGAAUGUAATT against HTR7, the median seed-adjusted z-score was inactive: -0.0111. On to GGCUUUAAGAUCACGCAGATT against SNRPA, for which the median seed-adjusted z-score was active: -2.09. For the sequence AGAUGCACAUAGUACAUGATT against CA4, the median seed-adjusted z-score was inactive: 0.0549. For the sequence CCGUUAUCCUGGAAACUGATT against SLC25A29, the median seed-adjusted z-score is inactive: 0.642. For GGUGGACACGUCAUUCUGATT against GTPBP5, the median seed-adjusted z-score was inactive: 0.0354. Turning to CAAUAAACAUGGAAUACCATT against GABRG3, the median seed-adjusted z-score is inactive: 0. As to GCUGUAGUGCAGUUCCAGATT against NDOR1, the median seed-adjusted z-score was inactive: 0.328. GAAGAAGGCUGGAAACAGATT against HDAC7: the median seed-adjusted z-score was inactive: -0.41. Regarding GCCUCCUACUACUUCCGUUTT against SLC6A8, the median seed-adjusted z-score was inactive: -0.0673. Next, GUACUGUACCUCAUGCAUATT against PDHX: inactive: 0.21; CCGUCUCCAUGAAUGAGAATT against SULT4A1: inactive: -0.0628. Next, CCAUUGGAUUUAAUGUAGATT against ARL1: inactive: 0.347; GGGAUAAGCAGAUAGAAGATT against MYST2: active: -1.46; GGGAGAUUGGCUCUGUGAATT against RAC3: inactive: 0.477. Turning to CGGCGAUGUGGAGUACGUATT against DBP, the median seed-adjusted z-score is inactive: -0.115. As for GCUUUACCACCGUACGAAATT against MST4, the median seed-adjusted z-score was inactive: 0.343. On to GGAUAUUGGAGUAAUUGGATT against LEPR, for which the median seed-adjusted z-score was inactive: -0.184. Next, CAAUGGAAGCUGUUAAACATT against PSMA1: inactive: -0.145; CAUCAUCAGUUUUUCGAUUTT against AHCTF1: inactive: -0.501.

Take GUAUUUGUGACAGGGCAAATT against PTPRC: the median seed-adjusted z-score was inactive: 0.197. Regarding GGGAUGGAUUGGAUACUGATT against ATAD1, the median seed-adjusted z-score was inactive: -0.544. As to CAAUGGACAGAAUACACUUTT against ZNF614, the median seed-adjusted z-score is inactive: 0.0971.

As to GUCUGUAACUGAGCAAGGATT against YWHAZ, the median seed-adjusted z-score was inactive: 0.721.

In the case of CAUCAACAAUGAGACCAUUTT against AOC3, the median seed-adjusted z-score is inactive: -0.474. In the case of GCUGUCUCUUAGUAAAUAATT against INSL3, the median seed-adjusted z-score was inactive: -0.037.

For CACCUUCCAUGAUACCUAUTT against KCNJ5, the median seed-adjusted z-score is inactive: 0.0644. Consider CCCUGAACCUGGUACUGCATT against DOK1, for which the median seed-adjusted z-score is inactive: 0.0532.

Consider CAAGAAGCAUUAUUACGAUTT against PPIL2, for which the median seed-adjusted z-score was inactive: -0.467. Next, ACAUCACCACGGGUCUGUATT against STK11: inactive: 0.348; GCAGCUCGUUGGCUCCAAATT against CLDN9: inactive: 0.398.

For CAUUCUUUCUAACCAUGGATT against CAPN11, the median seed-adjusted z-score is inactive: -0.273. Turning to AGCUUGGGCUCACAAGAAATT against ZNF707, the median seed-adjusted z-score was inactive: -0.119. In the case of GGAGUAGAAUGGAUUGCAATT against CD48, the median seed-adjusted z-score was inactive: -0.0981. For CCAACCACAUAACUCGAGATT against RAD51L3, the median seed-adjusted z-score is inactive: 0.155. The result for CCAGUGACUCCUAAGUUUATT against ZYX reads inactive: 0.273. GGAACUUGCACAACUAGAATT against CDC2L5: the median seed-adjusted z-score was inactive: 0.314. The result for CCAAGAUUCAGGUCAUUGATT against PRPS2 reads inactive: 0.389.
